Laboratory results: US8466151B2, “Compounds and method for treatment of cancer” (Critical Outcome Technologies, Inc., priority 2007, dated 2013)
pIC50: −log10 of the molar value. Some entries share one result that the patent states for a list of compounds.

Tests used:
[1] = tested on: DMS-153 human SCLC cell line; assay: In vitro tumor cell growth inhibition, cell count after 3 days; type: cell-based; details: DMS-153 SCLC cells, 35° C., listed as COTI-4
Experimental: (§1) Cells were counted after 3 days in culture and at a cell density of no more than 80%.
(§2) In vitro inhibition of small cell lung cancer (SCLC) cell lines by the compound of formula 1A was done with standard human tumor cells (established cell lines available from the American Type Tissue culture collection). […] Cells were counted after 3 days in culture and at a cell density of no more than 80%.
(§3) Briefly, cells were plated in plastic tissue culture plates and grown under standard conditions for each cell line, in carbon dioxide/oxygen atmosphere in plastic tissue culture plates, in the presence of COTI-4 or COTI-4A compounds at 35° C. for 3 days. Control cultures were treated with vehicle minus compound. Cells were counted after 3 days in culture and at a cell density of no more than 80%. The following cell lines, obtained from the National Cancer Institute, were tested: human SCLC cell lines DMS 153, DMS114, SHP77; human NSCLC cell lines H226, A460, A549; human breast cancer cell lines T47D, MCF7; human colon cancer cell line HT29; and, human Leukemia cell lines K562, HL60.

[2] = tested on: DMS-114 human SCLC cell line; assay: as above; type: cell-based; details: DMS-114 SCLC cells, 35° C., listed as COTI-4
Experimental: as §1, §2, §3

## CN1CCN(C(=S)NN=C(c2ccccn2)c2ccccn2)CC1 [Formula 1B, N′-(dipyridin-2-ylmethylidene)-4-methylpiperazine-1-carbothiohydrazide]
[1]
  pIC50: > 6.00
[2]
  pIC50: > 6.00
